The record followed here is publication PMC4924649.

Protein sequences, listed by entry. Tags and fused reporters are not part of them. Residues count along the entry.
UniProt P19883, residues 30-344: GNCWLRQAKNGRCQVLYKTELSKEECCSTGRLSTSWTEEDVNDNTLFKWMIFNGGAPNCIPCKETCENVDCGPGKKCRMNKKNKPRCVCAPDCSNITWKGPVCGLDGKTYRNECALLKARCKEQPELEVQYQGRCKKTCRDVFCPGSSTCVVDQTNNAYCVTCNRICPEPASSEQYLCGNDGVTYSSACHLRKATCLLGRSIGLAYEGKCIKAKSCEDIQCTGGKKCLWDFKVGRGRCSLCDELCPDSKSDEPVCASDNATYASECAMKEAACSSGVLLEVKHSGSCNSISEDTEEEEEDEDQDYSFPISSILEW
UniProt P08476, residues 311-426: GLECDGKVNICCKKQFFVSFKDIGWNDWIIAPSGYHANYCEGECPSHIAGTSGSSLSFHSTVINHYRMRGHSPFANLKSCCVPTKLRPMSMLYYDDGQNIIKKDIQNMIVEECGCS

No constants are given. Whether binding was seen depends on the method and setting. Some binding calls cover weakened binding; strength is not graded here.

This assay deals with follistatin (human (endogenous in plasma)) (UniProt P19883). Kind of assay: ELISA; plasma samples treated with rhActA (50 and 100 ng/ml), then FST measured with the Quantikine FST ELISA (R&D Systems DFN00); read-out is the loss of detectable (free) FST; only the binder purified. Background: In an ELISA, binding on a coated surface is turned into a signal by an enzyme label.

As for “recombinant human activin A (from UniProt P08476 311-426) (ligand)”, the binding entry was “binds”.
